Laboratory results reported in paper PMC2889838.
No constants are given. Whether binding was seen depends on the method and setting. For part of these data: Binding seen in cells or lysates may run through a third protein. Some entries that bind do so weakly or less than the wild type. For part of these data: Where a sequence is shown, tags or fusion partners need not be part of it.

Chains of the proteins cited; added tags and fusions are not shown.
UniProt P49069: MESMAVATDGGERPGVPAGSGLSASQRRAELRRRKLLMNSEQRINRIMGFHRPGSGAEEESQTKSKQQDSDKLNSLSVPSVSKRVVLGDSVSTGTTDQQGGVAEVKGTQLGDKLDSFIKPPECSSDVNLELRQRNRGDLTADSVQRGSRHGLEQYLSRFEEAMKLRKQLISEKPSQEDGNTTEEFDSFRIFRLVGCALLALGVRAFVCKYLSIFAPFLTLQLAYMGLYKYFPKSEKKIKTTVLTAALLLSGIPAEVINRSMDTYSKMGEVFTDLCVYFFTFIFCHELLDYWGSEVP

How the values were obtained:
[1] = biological target: T1, Transmembrane and ubiquitin-like domain containing 1 (Tmub1), full-length, yeast two-hybrid bait (UniProt Q9JMG3); test: two-hybrid; screen of the Pretransformed Human Brain … cDNA library (pACT2) with full-length Tmub1 in pGBKT7 as bait, strain AH109; selection on plates with X-alpha-Gal lacking leucine, tryptophan and histidine
T1 sequence: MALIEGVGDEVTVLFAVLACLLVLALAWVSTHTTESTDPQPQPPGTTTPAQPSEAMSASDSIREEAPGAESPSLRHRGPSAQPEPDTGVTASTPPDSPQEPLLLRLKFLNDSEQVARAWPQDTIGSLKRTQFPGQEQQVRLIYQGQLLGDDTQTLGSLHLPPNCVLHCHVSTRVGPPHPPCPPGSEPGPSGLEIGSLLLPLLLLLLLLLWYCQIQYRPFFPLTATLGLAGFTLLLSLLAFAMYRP

[2] = biological target: T2, Tmub1-His (6xHis at the C-terminus) (UniProt Q9JMG3); test: co-IP; His-tagged Tmub1 and FLAG-CAMLG co-expressed in HEK293; lysate in 20mM Tris pH8.0, 150mM NaCl, 1% Triton X-100, 1mM EDTA; captured by anti-His (affinity column), blotted with anti-Flag
T2 sequence: T1 sequence

[3] = biological target: T3, His-Tmub1 (6xHis at the N-terminus) (UniProt Q9JMG3); test: as above
T3 sequence: T1 sequence

Row | binding [1] | binding [2] | binding [3] | Substance
1 | binds | – | – | Calcium modulating cyclophilin ligand (CAMLG/CAML), full-length clone from the human brain cDNA library, yeast two-hybrid prey (from UniProt P49069 1-296)
2 | – | binds | binds | FLAG-CAMLG (Flag tag at the N-terminus) (from UniProt P49069 1-296)
